# Results are given in words; binding and its absence hold for the method and conditions named. Binding seen in cells or lysates may run through a third protein. These calls come from enrichment with a bait or labelling near it, and not all partners need be listed.
# Chains of the proteins cited; added tags and fusions are not shown.
# UniProt P57764: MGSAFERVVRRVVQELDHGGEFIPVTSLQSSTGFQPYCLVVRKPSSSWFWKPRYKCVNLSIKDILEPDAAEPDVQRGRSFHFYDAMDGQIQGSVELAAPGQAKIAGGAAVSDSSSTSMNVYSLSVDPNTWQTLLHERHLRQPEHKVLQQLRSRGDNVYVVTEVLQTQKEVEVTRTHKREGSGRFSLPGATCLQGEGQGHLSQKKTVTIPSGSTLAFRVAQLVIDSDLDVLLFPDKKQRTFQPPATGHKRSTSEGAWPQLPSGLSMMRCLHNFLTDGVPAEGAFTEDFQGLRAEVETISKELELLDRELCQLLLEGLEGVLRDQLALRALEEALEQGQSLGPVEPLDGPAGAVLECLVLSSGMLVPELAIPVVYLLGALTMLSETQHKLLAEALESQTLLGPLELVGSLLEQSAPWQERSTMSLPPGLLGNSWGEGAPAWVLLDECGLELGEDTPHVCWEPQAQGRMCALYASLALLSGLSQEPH
# UniProt Q86TM6: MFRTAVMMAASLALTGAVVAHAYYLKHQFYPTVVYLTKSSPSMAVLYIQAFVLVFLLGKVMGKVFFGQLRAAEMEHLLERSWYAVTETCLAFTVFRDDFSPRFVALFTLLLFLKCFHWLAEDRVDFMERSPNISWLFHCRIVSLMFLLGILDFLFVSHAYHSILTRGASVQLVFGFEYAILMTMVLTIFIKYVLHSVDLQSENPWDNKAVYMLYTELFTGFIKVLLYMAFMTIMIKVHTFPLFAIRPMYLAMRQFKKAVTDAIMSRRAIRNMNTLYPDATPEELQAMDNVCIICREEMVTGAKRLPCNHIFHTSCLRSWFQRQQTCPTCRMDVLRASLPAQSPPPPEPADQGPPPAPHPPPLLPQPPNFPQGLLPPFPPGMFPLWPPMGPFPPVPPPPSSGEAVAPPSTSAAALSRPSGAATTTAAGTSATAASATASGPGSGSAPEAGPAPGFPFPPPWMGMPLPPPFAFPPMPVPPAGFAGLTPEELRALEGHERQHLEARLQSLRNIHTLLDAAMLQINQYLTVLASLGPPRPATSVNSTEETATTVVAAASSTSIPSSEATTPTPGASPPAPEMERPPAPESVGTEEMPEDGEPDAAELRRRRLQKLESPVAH
# Molecular target: Flag-human GSDMD (p3 × Flag-hGSDMD-FL) (human) (UniProt P57764)
# Experiment: affinity purification with mass spectrometry; HEK293T cells co-transfected with SYVN1-Myc and Flag-GSDMD; anti-Flag immunoprecipitates resolved on SDS-PAGE, bands digested with trypsin, LC-MS/MS
substance,measurement,value
SYVN1-Myc (pcDNA3.1-SYVN1-Myc) (from UniProt Q86TM6 1-617) (enzyme),binding,binds

# Reference: paper PMC8814081
